Publication PMC12000354
Results are given in words; binding and its absence hold for the method and conditions named. Binding seen in cells or lysates may run through a third protein. Some results given as binding are weak or reduced against the parent protein; the word gives no strength. Tags and fused reporters may be left off the sequences shown.

Sequences of proteins named here, by UniProt entry; tags and fusion partners are left off.
UniProt Q86WJ1: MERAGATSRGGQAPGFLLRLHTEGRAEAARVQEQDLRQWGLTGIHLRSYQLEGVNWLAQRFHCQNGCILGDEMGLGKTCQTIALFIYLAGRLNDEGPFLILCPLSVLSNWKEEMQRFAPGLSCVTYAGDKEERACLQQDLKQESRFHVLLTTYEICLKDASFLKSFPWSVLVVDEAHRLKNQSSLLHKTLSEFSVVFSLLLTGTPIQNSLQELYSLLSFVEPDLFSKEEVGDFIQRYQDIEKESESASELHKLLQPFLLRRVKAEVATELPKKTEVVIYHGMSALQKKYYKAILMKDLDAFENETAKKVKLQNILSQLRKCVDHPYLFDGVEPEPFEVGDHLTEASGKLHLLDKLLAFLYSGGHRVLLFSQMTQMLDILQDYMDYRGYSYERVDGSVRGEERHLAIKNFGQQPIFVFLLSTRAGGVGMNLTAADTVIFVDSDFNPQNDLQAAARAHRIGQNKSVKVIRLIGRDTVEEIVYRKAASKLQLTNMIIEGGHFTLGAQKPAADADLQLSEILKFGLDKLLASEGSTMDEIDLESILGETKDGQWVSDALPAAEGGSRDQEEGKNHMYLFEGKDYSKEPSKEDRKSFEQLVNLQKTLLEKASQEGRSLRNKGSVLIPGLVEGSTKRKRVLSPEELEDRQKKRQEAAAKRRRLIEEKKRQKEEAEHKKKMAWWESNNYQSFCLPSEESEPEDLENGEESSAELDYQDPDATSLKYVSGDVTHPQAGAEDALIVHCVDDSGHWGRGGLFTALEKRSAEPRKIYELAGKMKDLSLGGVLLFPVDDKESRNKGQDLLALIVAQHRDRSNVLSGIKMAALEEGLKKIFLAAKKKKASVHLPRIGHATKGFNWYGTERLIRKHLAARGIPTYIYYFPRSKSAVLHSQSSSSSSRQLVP

Experiments:
[1] = biological target: T1, Flag-VRK1 (Vaccinia-related kinase 1) (UniProt Q99986); assay: co-IP; Huh7 cells with control plasmid or transient Flag-VRK1; Flag-VRK1 immunoprecipitated (anti-Flag magnetic beads, overnight 4 °C, IP lysis solution), endogenous partners by Western blot
T1 sequence: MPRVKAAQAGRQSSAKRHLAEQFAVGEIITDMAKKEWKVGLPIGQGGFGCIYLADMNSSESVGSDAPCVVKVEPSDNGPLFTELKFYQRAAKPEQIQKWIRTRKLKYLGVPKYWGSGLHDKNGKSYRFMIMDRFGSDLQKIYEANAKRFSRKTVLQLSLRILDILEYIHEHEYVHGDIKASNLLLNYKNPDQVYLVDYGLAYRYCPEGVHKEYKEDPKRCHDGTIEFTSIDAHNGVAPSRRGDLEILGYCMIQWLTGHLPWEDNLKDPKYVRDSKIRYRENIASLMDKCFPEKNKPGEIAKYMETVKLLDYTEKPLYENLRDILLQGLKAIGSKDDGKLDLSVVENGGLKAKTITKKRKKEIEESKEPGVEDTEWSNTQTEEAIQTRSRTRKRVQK

[2] = biological target: T1, Flag-VRK1 (Vaccinia-related kinase 1); assay: co-IP; 293T cells with ectopic Flag-VRK1 and HA-CHD1L; anti-Flag or anti-HA magnetic beads, overnight 4 °C, Western blot; both directions
[3] = biological target: T1, Flag-VRK1 (Vaccinia-related kinase 1); assay: co-IP; Huh7 cells with ectopic Flag-VRK1 and HA-CHD1L; anti-Flag or anti-HA magnetic beads, overnight 4 °C, Western blot; both directions
[4] = biological target: HA-CHD1L (chromodomain helicase DNA binding protein 1-like) (human) (UniProt Q86WJ1); assay: co-IP; 293T cells with ectopic Flag-VRK1 and HA-CHD1L; anti-Flag or anti-HA magnetic beads, overnight 4 °C, Western blot; both directions
[5] = biological target: HA-CHD1L (chromodomain helicase DNA binding protein 1-like) (human) (UniProt Q86WJ1); assay: co-IP; Huh7 cells with ectopic Flag-VRK1 and HA-CHD1L; anti-Flag or anti-HA magnetic beads, overnight 4 °C, Western blot; both directions

**Q.** With “endogenous CHD1L (chromodomain helicase DNA binding protein 1-like) (from UniProt Q86WJ1 1-897)” as the molecule, how does the binding [1] read?
**A.** The binding was “binds”.

**Q.** How did the binding [2] turn out when “HA-CHD1L (chromodomain helicase DNA binding protein 1-like) (from UniProt Q86WJ1 1-897)” was run?
**A.** The binding was “binds”.

**Q.** And the binding [3]?
**A.** The binding was “binds”.

B1: Flag-VRK1 (Vaccinia-related kinase 1) (enzyme, UniProt Q99986 1-396)
chain: MPRVKAAQAGRQSSAKRHLAEQFAVGEIITDMAKKEWKVGLPIGQGGFGCIYLADMNSSESVGSDAPCVVKVEPSDNGPLFTELKFYQRAAKPEQIQKWIRTRKLKYLGVPKYWGSGLHDKNGKSYRFMIMDRFGSDLQKIYEANAKRFSRKTVLQLSLRILDILEYIHEHEYVHGDIKASNLLLNYKNPDQVYLVDYGLAYRYCPEGVHKEYKEDPKRCHDGTIEFTSIDAHNGVAPSRRGDLEILGYCMIQWLTGHLPWEDNLKDPKYVRDSKIRYRENIASLMDKCFPEKNKPGEIAKYMETVKLLDYTEKPLYENLRDILLQGLKAIGSKDDGKLDLSVVENGGLKAKTITKKRKKEIEESKEPGVEDTEWSNTQTEEAIQTRSRTRKRVQK
**Q.** Which results are given for B1?
**A.** binding [4]: binds; binding [5]: binds
